Laboratory results reported in publication PMC4531439, “New insights into the molecular mechanism of the Rab GTPase Sec4p activation” (BMC Structural Biology, 2015).
These are yes or no findings as the source states them, for the method shown. Some entries that bind do so weakly or less than the wild type.

Tests used:
[1] = biological target: T1, Sec4p (19–187) S29V (S. cerevisiae) (UniProt P07560); assay: SEC; data not shown; 1.8-fold molar excess of Sec2p(51-142) mixed with Sec4p(19-187) S29V in 20 mM Tris-HCl pH 8.0, 100 NaCl, 5 mM MgCl2, 2 h at 4 °C; Superdex200 (10/300); complex formation evaluated by SDS-PAGE; in presence of nucleotide and magnesium; both purified
T1 sequence: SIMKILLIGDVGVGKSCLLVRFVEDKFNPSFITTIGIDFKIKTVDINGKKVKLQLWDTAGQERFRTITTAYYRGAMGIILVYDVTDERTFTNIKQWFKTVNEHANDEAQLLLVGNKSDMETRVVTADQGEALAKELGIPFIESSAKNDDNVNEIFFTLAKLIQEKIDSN

[2] = biological target: T1, Sec4p (19–187) S29V (S. cerevisiae); assay: crystal structure; ternary complex Sec4p(19-187) S29V.GDP.Sec2p(51-142) at 15 mg/ml; 24 % PEG3350, 0.2 M sodium citrate, 10 mM GDP added to the drop; 2.9 Å, space group I222, one ternary complex per asymmetric unit; both purified

binding [1]: binds | binding [2]: binds
B1: Sec2p (51–142) (domain or fragment, UniProt P17065 51-142, looked up)
chain: NYNQLKEDYNTLKRELSDRDDEVKRLREDIAKENELRTKAEEEADKLNKEVEDLTASLFDEANNMVADARKEKYAIEILNKRLTEQLREKDT
